Reference: patent publication US10576126B2, “Antitumor agent” (NATIONAL UNIVERSITY CORPORATION ASAHIKAWA MEDICAL UNIVERSITY, priority 2016, dated 2020)
For at least one compound, name, drawing or mass did not settle the structure.

Legend:
Format in all cases: cell-based
[1] = tested on: colorectal cancer cell line SW620; assay: SRB assay, colorectal cancer cell line SW620; conditions: ferrichrome 0.1 μg/mL with SP600125 1 or 5 μM
Description: L. casei ATCC334, LGG ATCC53103, L. coryniformis ATCC25600 and L. fermentis ATCC23271 were purchased from ATCC. These microorganisms were cultured overnight at 37° C. using MRS broth (Difco) and then transferred to MEM and cultured for one day. The cultured medium was centrifuged at 5,000×g for 10 minutes to collect the supernatant, which was filtered through a 0.2 μm filter and used as the culture supernatant in the following examples.
By using the colorectal cancer cell lines Caco2/bbe, SKCO-1 and SW620 as test cells and the culture supernatants of LGG ATCC53103, L. casei ATCC334, L. coryniformis ATCC25600 and L. fermentis ATCC23271 as measurement samples, an antitumor activity of each supernatant was measured by SRB-assay.
This fraction was subjected to mass spectrometry (TOF, ionization method: micro ESI) using Nano Frontier elD Liquid Chromatograpy Mass Spectrometer (Hitachi High-technologies), and a chart shown in FIG. 3A was obtained. The peak at m/z 763.2 in this chart was approximately consistent with that in the chart obtained for commercial ferrichrome (Sigma-Aldrich) by mass spectrometry in a similar mannar (FIG. 3B). By using commercially available ferrichrome as a measurement sample and the colorectal cancer cell line SW620 as a test cell, an antitumor activity was measured.

[2] = tested on: cleaved caspase-3; assay: Western blotting for cleaved caspase-3 in SW620; conditions: ferrichrome-added SW620 plus JNK inhibitor or siRNA
Description: (§1) Total proteins recovered from the ferrichrome-treated colorectal cancer cell line SW620 using mammalian cell extraction kit (BioVision) were subjected to Western blotting using specific antibodies for cleaved caspase-3 and PARP (Cell Signaling), respectively.

[3] = tested on: PARP; assay: Western blotting for PARP in SW620; conditions: ferrichrome-added SW620 plus JNK inhibitor or siRNA
Description: as §1

## Oc1c2ccccc2c2c3c(cccc13)N=N2 [SP600125, reference compound]
[1]
  change in antitumor activity of ferrichrome on addition of JNK pathway inhibitor: suppression of the antitumor activity of ferrichrome
[2]
  expression of cleaved caspase-3 under JNK inhibition: decreased expression
[3]
  expression of PARP under JNK inhibition: decreased expression
